In patent US20230037911A1 one finds binding data, which are given here for 22 molecules.

T1: recombinant human TIGIT extra cellular domain (ECD) protein (human) (UniProt Q495A1)
T1 sequence: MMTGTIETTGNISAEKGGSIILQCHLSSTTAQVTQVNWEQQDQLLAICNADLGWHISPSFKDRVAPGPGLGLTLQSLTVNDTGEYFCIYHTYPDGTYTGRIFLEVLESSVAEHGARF

B1: Bivalent 2A3 antibody (2A3-Fc), 2A3 VHH with human IgG1 CH2 and CH3 domains (Fc fusion, not shown: a dimerising Fc or GST)
chain: QVQLVESGGGVVQPGRSLRLSCAASGGSFSSYPMGWFRQAPGKERESVAAISSDMRFTYYADSVKGRFTISRDNSKNTLYLQMNSLRAEDTAVYYCAARDSGVGYYSRAQWYDYWGQGTLVTVSS
B2: 1A8 VHH (VHH)
VHH: B1 chain with G27P, D54R, M55G, V103S
B3: 6B11 VHH (VHH)
VHH: B1 chain with G27P, S30P, D54R, M55G, V103S, A109L
B4: 1A10 VHH (VHH)
VHH: B1 chain with G27N, M55G, T58S, A98C, V103S
B5: 6D12 VHH (VHH)
VHH: B1 chain with G27P, S31T, M55G, R56V, V103S, A109E
B6: 6F12 VHH (VHH)
VHH: B1 chain with G27P, S30T, M55G, T58K, R99E, V103S
B7: 1G1-1C12 VHH (VHH)
VHH: B1 chain with G27P, M55L, V103S, A109K
B8: 6E9 VHH (VHH)
VHH: B1 chain with G27P, F29R, M55G, R56K, V103S, Q110N
B9: 2A6 VHH (VHH)
VHH: B1 chain with G27P, S31L, M55R, V103S
B10: 7B11 VHH (VHH)
VHH: B1 chain with G27P, S30L, S31I, M55G, T58W, V103S, A109V
B11: 1D11 VHH (VHH)
VHH: B1 chain with G27P, Y32S, D54M, M55G, V103S
B12: 2D5 VHH (VHH)
VHH: B1 chain with G27P, Y32S, S53W, M55G, V103S, D113V
B13: 2A3 VHH (VHH)
VHH: B1 chain
B14: 5E8 VHH (VHH)
VHH: B1 chain with G27P, I51Q, M55G, V103S
B15: 1C7 VHH (VHH)
VHH: B1 chain with G27P, D54R, M55G, D100G, V103S
B16: 2A5 VHH (VHH)
VHH: B1 chain with G27P, D54V, M55G, V103S, A109W
B17: 5B5 VHH (VHH)
VHH: B1 chain with G27P, M55T, V103S, Y114R
B18: 6D8 VHH (VHH)
VHH: B1 chain with G27P, Y32K, I51R, M55G, V103S, Y105R
B19: 2C5 VHH (VHH)
VHH: B1 chain with G27P, S31T, D54Q, M55G, V103S
B20: 7F6 VHH (VHH)
VHH: B1 chain with G27P, S28M, M55P, V103S
B21: 5G10 VHH (VHH)
VHH: B1 chain with G27P, S28R, M55G, V103S, Y114G
B22: 10H5 VHH (VHH)
VHH: GGGLVQAGGSLRLACTASDPPFANYETTFKSMAMGWVRHIPGKERELVAATNYNGGRTWYSNSAKARSTISRDNAKNTVYLQMSSLKPEDTAVYYCAAKATEGTTFPSRTYEFWGQGIQVTVSS

Substitutions are numbered along the chain they refer to. No constants are given. Whether binding was seen depends on the method and setting. Some entries that bind do so weakly or less than the wild type. For part of these data: Tags and fused reporters may be left off the sequences shown.

One test concerns the target recombinant cynomolgus TIGIT (cyno-TIGIT ECD) (cynomolgus monkey). Nature of the test: ELISA. (An ELISA detects its analyte on a solid surface through an enzyme-linked reagent.)
Consider B1, for which the binding result is on record as “binds”.

For a further test the target is unchanged. Nature of the test: ELISA, VHH in supernatant.
B2: the binding result is on record as “binds”.

In the case of B3, the binding entry is “binds”.

Take B4: the binding entry is “binds”.

In the case of B5, the binding result is given as “binds”.

As for B6, the binding result is reported as “binds”.

For B7, the binding result was “binds”.

For B8, the binding result is “binds”.

Regarding B9, the binding entry is recorded as “binds”.

As for B10, the binding entry is given as “binds”.

Consider B11, for which the binding entry was “binds”.

In the case of B12, the binding entry is listed as “binds”.

On to B13, for which the binding entry was “binds”.

Take B14: the binding entry is recorded as “binds”.

With B15, the binding result is on record as “binds”.

Consider B16, for which the binding result was “binds”.

Turning to B17, the binding result was “binds”.

As to B18, the binding result is “binds”.

Turning to B19, the binding result is “binds”.

Take B20: the binding entry is given as “binds”.

Take B21: the binding entry is given as “binds”.

The target is the same in a further test. Nature of the test: ELISA, recombinant cyno-TIGIT.
In the case of B1, the binding result is “binds”.

The target is the same in the next test. The test can be described thus: ELISA on recombinant cyno-TIGIT.
Take B1: the binding entry is “binds”.

The next test has as its target T1, recombinant human TIGIT extra cellular domain (ECD) protein (human). Nature of the test: ELISA, VHH in supernatant on h-TIGIT ECD coated plates.
For B22, the binding result was “binds”.
